According to patent US20230073214A1, “BIOACTIVE RELEASING MEMBRANE FOR ANALYTE SENSOR” (DexCom, Inc., priority 2021, published 2023):

Test: additional release experiments with dexamethasone salts in different bioactive releasing membrane combinations
Type: physicochemical
Conditions: incorporated in a biointerface polymer membrane

In the case of C[C@@H]1C[C@H]2[C@@H]3CCC4=CC(=O)C=C[C@]4(C)[C@@]3(F)[C@@H](O)C[C@]2(C)[C@@]1(O)C(=O)COP(=O)(O)O [Dexamethasone phosphate], the “duration of sustained release” value is reported as “about 2 days”.
